Results published in the supplement of paper PMC4604168 (melanoma cell lines).
The list shows a part of the results. Single values are uncertain, as repeats are few or missing.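 Imaging used 1,536-well plates; nuclei positive for cleaved PARP by antibody were divided by total DNA-stained nuclei to yield the apoptosis fraction. Doses for screening kept most cells viable, and cell lines differ markedly in resting and induced cleaved-PARP levels.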

Columns and labels:
Assay in all cases: cleaved PARP positive nuclei fraction relative to DMSO control; melanoma cells; higher = more apoptosis
Settings in all cases: library dose: low library concentration; 72 h
501Mel = tested on: 501Mel
A101D = tested on: A101D
A2058 = tested on: A2058
A375 = tested on: A375
C32 = tested on: C32
CBRC008 = tested on: CBRC008 (line from a melanoma biopsy)
CBRC014 = tested on: CBRC014 (line from a melanoma biopsy)
CBRC016 = tested on: CBRC016 (line from a melanoma biopsy)
CBRC017 = tested on: CBRC017 (line from a melanoma biopsy)

| Structure (SMILES) | cleaved PARP positive nuclei fraction (501Mel) [%] | cleaved PARP positive nuclei fraction (A101D) [%] | cleaved PARP positive nuclei fraction (A2058) [%] | cleaved PARP positive nuclei fraction (A375) [%] | cleaved PARP positive nuclei fraction (C32) [%] | cleaved PARP positive nuclei fraction (CBRC008) [%] | cleaved PARP positive nuclei fraction (CBRC014) [%] | cleaved PARP positive nuclei fraction (CBRC016) [%] | cleaved PARP positive nuclei fraction (CBRC017) [%] |
| --- | --- | --- | --- | --- | --- | --- | --- | --- | --- |
| COc1cc([C@@H]2c3cc4c(cc3[C@@H](O[C@@H]3O[C@@H]5CO[C@@H](C)O[C@H]5[C@H](O)[C@H]3O)[C@H]3COC(=O)[C@H]23)OCO4)cc(OC)c1O [etoposide] + C[C@]1(c2nc3c(C(N)=O)cccc3[nH]2)CCCN1 [Veliparib] (first compound 0.02 µM, partner dose 1.4 µM) | 70.6 | 100 | 149 | 212 | 72.1 | 33.6 | 98.8 | 79.8 | 131 |
| O=C(/C=C/c1cccnc1)NCCCCC1CCN(C(=O)c2ccccc2)CC1 + Nc1ncn([C@H]2C[C@H](O)[C@@H](CO)O2)c(=O)n1 [decitabine] (first compound 0.01 µM, partner dose 0.1 µM) | 51.5 | 142 | 55.2 | 95.8 | 71.8 | 4090 | 154 | 2200 | 651 |
| Cc1cc(Nc2cc(N3CCN(C)CC3)nc(Sc3ccc(NC(=O)C4CC4)cc3)n2)n[nH]1 [Tozasertib] + CNC(=O)c1cc(Oc2ccc(NC(=O)Nc3ccc(Cl)c(C(F)(F)F)c3)cc2)ccn1 [sorafenib] (first compound 0.006 µM, partner dose 0.4 µM) | 90.9 | 47.4 | 126 | 174 | 83.4 | 71.2 | 98.2 | 286 | 97.8 |
| CCCCCCCCCCCCCCCCCCOP(=O)([O-])OC1CC[N+](C)(C)CC1 [Perifosine] + CC(C)C[C@H](NC(=O)[C@H](Cc1ccccc1)NC(=O)c1cnccn1)B(O)O [Bortezomib] (first compound 0.4 µM, partner dose 0.001 µM) | 722 | 224 | 335 | 2010 | 97.7 | 233 | 211 | 115 | 155 |
| COc1cc([C@@H]2c3cc4c(cc3[C@@H](O[C@@H]3O[C@@H]5CO[C@@H](C)O[C@H]5[C@H](O)[C@H]3O)[C@H]3COC(=O)[C@H]23)OCO4)cc(OC)c1O [etoposide] + CS(=O)(=O)c1ccc(C(=O)Nc2ccc(Cl)c(-c3ccccn3)c2)c(Cl)c1 [vismodegib] (first compound 0.02 µM, partner dose 1 µM) | 194 | 127 | 81.6 | 355 | 74.6 | 110 | 88.1 | 36.4 | 68.8 |
| CCCCCCCCCCCCCCCCCCOP(=O)([O-])OC1CC[N+](C)(C)CC1 [Perifosine] + C[C@]1(c2nc3c(C(N)=O)cccc3[nH]2)CCCN1 [Veliparib] (first compound 0.4 µM, partner dose 1.4 µM) | 118 | 46.9 | 46.7 | 531 | 78.5 | 95.2 | 113 | 117 | 140 |
| Cc1ccc(Nc2nccc(N(C)c3ccc4c(C)n(C)nc4c3)n2)cc1S(N)(=O)=O [Pazopanib] + Cc1cn(-c2cc(NC(=O)c3ccc(C)c(Nc4nccc(-c5cccnc5)n4)c3)cc(C(F)(F)F)c2)cn1 [nilotinib] (first compound 0.4 µM, partner dose 0.2 µM) | 136 | 97.5 | 134 | 39.5 | 73.4 | 164 | 112 | 171 | 130 |
| O=C(Nc1cc(C(F)(F)F)cc(C(F)(F)F)c1)c1cc(Cl)ccc1O + O=C(O)c1ccc2c(c1)nc(Nc1cccc(Cl)c1)c1ccncc12 [CX4945] (first compound 0.016 µM, partner dose 0.4 µM) | 128 | 80.2 | 62.9 | 108 | 132 | 69.2 | 99.2 | 152 | 117 |
| O=C(/C=C/c1cccnc1)NCCCCC1CCN(C(=O)c2ccccc2)CC1 + OCc1c[nH]c2ccccc12 [Indole-3-carbinol] (first compound 0.01 µM, partner dose 0.8 µM) | 104 | 58.5 | 179 | 140 | 162 | 2060 | 97.5 | 392 | 364 |
| N#CC[C@H](C1CCCC1)n1cc(-c2ncnc3[nH]ccc23)cn1 [ruxolitinib] + COCC[n+]1c2c(n(Cc3cnccn3)c1C)C(=O)c1ccccc1C2=O [YM155] (first compound 1 µM, partner dose 0.0004 µM) | 75.6 | 82.8 | 119 | 63.7 | 80.9 | 416 | 80.9 | 175 | 117 |
| N#CC[C@H](C1CCCC1)n1cc(-c2ncnc3[nH]ccc23)cn1 [ruxolitinib] + CC1(C)CCC(c2ccc(Cl)cc2)=C(CN2CCN(c3ccc(C(=O)NS(=O)(=O)c4ccc(N[C@H](CCN5CCOCC5)CSc5ccccc5)c(S(=O)(=O)C(F)(F)F)c4)cc3)CC2)C1 [ABT263] (first compound 1 µM, partner dose 0.4 µM) | 130 | 391 | 257 | 479 | 96.6 | 567 | 327 | 426 | 368 |
| O=c1[nH]nc(Sc2ncc([N+](=O)[O-])s2)n1-c1ccc2c(c1)OCCO2 + COCC[n+]1c2c(n(Cc3cnccn3)c1C)C(=O)c1ccccc1C2=O [YM155] (first compound 0.2 µM, partner dose 0.0004 µM) | 140 | 32.9 | 67.4 | 132 | 87.2 | 208 | 87.4 | 131 | 111 |
| O=C(/C=C/c1cccnc1)NCCCCC1CCN(C(=O)c2ccccc2)CC1 + Cn1c(Nc2ccc(C(F)(F)F)cc2)nc2cc(Oc3ccnc(-c4ncc(C(F)(F)F)[nH]4)c3)ccc21 [CHIR265] (first compound 0.01 µM, partner dose 0.08 µM) | 50 | 72 | 167 | 347 | 107 | 1350 | 120 | 331 | 408 |
| COc1cc([C@@H]2c3cc4c(cc3[C@@H](O[C@@H]3O[C@@H]5CO[C@@H](C)O[C@H]5[C@H](O)[C@H]3O)[C@H]3COC(=O)[C@H]23)OCO4)cc(OC)c1O [etoposide] + C[C@@H](N)c1ccc(C(=O)Nc2ccnc3[nH]ccc23)cc1 [RKI983] (first compound 0.02 µM, partner dose 0.4 µM) | 72.2 | 140 | 321 | 166 | 88.2 | 92.6 | 135 | 72.2 | 79.4 |
| Cc1cc(Nc2cc(N3CCN(C)CC3)nc(Sc3ccc(NC(=O)C4CC4)cc3)n2)n[nH]1 [Tozasertib] + Cn1cnc2c(F)c(Nc3ccc(Br)cc3Cl)c(C(=O)NOCCO)cc21 [selumetinib] (first compound 0.006 µM, partner dose 0.015 µM) | 230 | 83.1 | 191 | 315 | 84.5 | 116 | 82.2 | 146 | 127 |
| N#CC[C@H](C1CCCC1)n1cc(-c2ncnc3[nH]ccc23)cn1 [ruxolitinib] + O=C(/C=C/c1cccnc1)NCCCCC1CCN(C(=O)c2ccccc2)CC1 [FK866] (first compound 1 µM, partner dose 0.01 µM) | 98.9 | 124 | 58.4 | 55.3 | 70.5 | 1980 | 287 | 238 | 311 |
| CCCCCCCCCCCCCCCCCCOP(=O)([O-])OC1CC[N+](C)(C)CC1 [Perifosine] + CC(=O)O[C@@]12CO[C@@H]1C[C@H](O)[C@@]1(C)C(=O)[C@H](O)C3=C(C)[C@@H](OC(=O)[C@H](O)[C@@H](NC(=O)OC(C)(C)C)c4ccccc4)C[C@@](O)([C@@H](OC(=O)c4ccccc4)[C@H]21)C3(C)C [Docetaxel] (first compound 0.4 µM, partner dose 0.0001 µM) | 143 | 132 | 1930 | 2530 | 157 | 393 | 129 | 151 | 104 |
| O=c1[nH]nc(Sc2ncc([N+](=O)[O-])s2)n1-c1ccc2c(c1)OCCO2 + C=C(c1ccc(C(=O)O)cc1)c1cc2c(cc1C)C(C)(C)CCC2(C)C [Bexarotene] (first compound 0.2 µM, partner dose 2 µM) | 48.3 | 118 | 140 | 45.6 | 77.6 | 87.8 | 126 | 109 | 237 |
| N#CC[C@H](C1CCCC1)n1cc(-c2ncnc3[nH]ccc23)cn1 [ruxolitinib] + Cc1ccc(Nc2nccc(N(C)c3ccc4c(C)n(C)nc4c3)n2)cc1S(N)(=O)=O [Pazopanib] (first compound 1 µM, partner dose 0.4 µM) | 68.9 | 92.9 | 85 | 83.3 | 79.9 | 145 | 117 | 103 | 207 |
| N#CC[C@H](C1CCCC1)n1cc(-c2ncnc3[nH]ccc23)cn1 [ruxolitinib] + C[C@]1(c2nc3c(C(N)=O)cccc3[nH]2)CCCN1 [Veliparib] (first compound 1 µM, partner dose 1.4 µM) | 96.9 | 148 | 273 | 161 | 69.2 | 70.6 | 114 | 172 | 158 |

Whole records from above. Order of values: cleaved PARP positive nuclei fraction (501Mel) [%] | cleaved PARP positive nuclei fraction (A101D) [%] | cleaved PARP positive nuclei fraction (A2058) [%] | cleaved PARP positive nuclei fraction (A375) [%] | cleaved PARP positive nuclei fraction (C32) [%] | cleaved PARP positive nuclei fraction (CBRC008) [%] | cleaved PARP positive nuclei fraction (CBRC014) [%] | cleaved PARP positive nuclei fraction (CBRC016) [%] | cleaved PARP positive nuclei fraction (CBRC017) [%]
COc1cc([C@@H]2c3cc4c(cc3[C@@H](O[C@@H]3O[C@@H]5CO[C@@H](C)O[C@H]5[C@H](O)[C@H]3O)[C@H]3COC(=O)[C@H]23)OCO4)cc(OC)c1O [etoposide] + C[C@]1(c2nc3c(C(N)=O)cccc3[nH]2)CCCN1 [Veliparib] (first compound 0.02 µM, partner dose 1.4 µM) as listed: 70.6 | 100 | 149 | 212 | 72.1 | 33.6 | 98.8 | 79.8 | 131
N#CC[C@H](C1CCCC1)n1cc(-c2ncnc3[nH]ccc23)cn1 [ruxolitinib] + O=C(/C=C/c1cccnc1)NCCCCC1CCN(C(=O)c2ccccc2)CC1 [FK866] (first compound 1 µM, partner dose 0.01 µM) as listed: 98.9 | 124 | 58.4 | 55.3 | 70.5 | 1980 | 287 | 238 | 311
